Experimental data as given in PubChem BioAssay AID485298 (National Center for Advancing Translational Sciences (NCATS), 2010).
The campaign covered roughly 320,000 compounds. About 740 (0.23%) were called active. This list was built around the results that the source calls inconclusive (neither active nor inactive); the mix of calls is not that of the screen. Calls come from the whole dose curve; as a rule, active = well fitted activation curve with a large enough effect; inconclusive = small, poorly fitted or top-dose-only effect; inactive = no such curve, though single readings can be large or run the other way. Potencies of inconclusive entries are doubtful fits and often do not repeat. More than one record can exist for a structure, and the calls need not agree.

experiment: qHTS Assay for Small Molecule Inhibitors of Mitochondrial Division or Activators of Mitochondrial Fusion; note: nearly all actives have a fitted effect of over 45% in size; for growth rescue (activation): % of control where 0% means no effect; conditions: S. cerevisiae fusion-defective mutant growth rescue, CellTiterGlo 48 h; growth rescue (activation): at 46.1 µM (top of the series) unless noted
Summary of the method: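 S. cerevisiae fusion-defective temperature-sensitive mutants (e.g. fzo1-1, mgm1-5) grown 48 h at 37C in YPEG (ethanol/glycerol non-fermentable) medium with 23 nl compound per well; growth rescue read as CellTiterGlo luminescence.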
Potency is the fitted concentration of half-maximal effect.

Row | Compound | growth rescue (activation) | Potency
1 | O=C(NCCN1C(=O)S/C(=C\c2cccc(Cl)c2Cl)C1=O)C1=COCCO1 | inactive: 9.1% | 
2 | COc1ccccc1/C=C/C(=O)NC(=S)NC(C)C | inactive: 14.2% | 
3 | CCC1(c2ccc(Cl)cc2)NC(=S)N(c2ccc(C)cc2)N1 (stereo not given) |  | inconclusive: 28.2 µM [activator, single point]
4 | CC1CCN(C(=O)c2[nH]cnc2C(=O)N[C@@H](C)C(=O)OCc2ccccc2)CC1 |  | inconclusive: 31.6 µM [activator, single point]
5 | O=C(OCc1ccc(Cl)cc1Cl)c1cccnc1Cl |  | inconclusive: 3.98 µM [activator, single point]
6 | CCOC(=O)c1cnc(-n2nc(C)cc2C)nc1NNc1cc(C)nc(-c2ccccc2)n1 |  | inconclusive: 31.6 µM [activator, single point]
7 | COc1ccccc1C1=NC(c2ccccc2)CN1c1ccccc1 (stereo not given) | inactive: -10.9% | 
8 | CC(C)(C)c1ccc(C(=O)c2cn[nH]c2-c2ccccc2O)cc1 |  | inconclusive: 10 µM [activator, partial curve]
9 | O=C(COc1c(Br)cc(Br)c2cccnc12)N1CCc2ccccc2C1 |  | inconclusive: 20 µM [activator, partial curve]
10 | COc1ccc(N=Nc2cnc(C)nc2-c2ccccc2)cc1 | inactive: 9.79% | 
11 | Cc1cc2c(cc1C)C(c1cc(Br)ccc1F)CC(=O)N2 (stereo not given) |  | inconclusive: 1.41 µM [activator, full curve]
12 | NC(=S)NNc1ccc(Cl)c(Cl)c1 | inactive: -1.15% | 
13 | COc1cc(NC(=O)c2ccc(Br)o2)ccc1NC(=O)c1ccccc1Cl |  | inconclusive: 35.5 µM [activator, single point]
14 | COc1ccc(OC)c(-c2csc(NC(=O)Cc3ccccc3F)n2)c1 | inactive: -35.7% | 
15 | Oc1ccccc1Oc1c(F)c(F)nc(N2CCCC2)c1F |  | inconclusive: 15.8 µM [activator, partial curve]
16 | CCOc1ccc(CN2CCNC(=O)C2CC(=O)NCc2cc(C)n(C)n2)cc1 (stereo not given) | inactive: -0.874% | 
17 | CC(C)c1ccc(NC(=O)CN2C(=O)c3cccc4cccc2c34)cc1 | inactive: 3.47% | 
18 | CC(C)COc1ccc(S(=O)(=O)NNC(=O)c2cc3ccccc3o2)cc1 |  | inconclusive: 22.4 µM [activator, single point]
19 | COc1ccccc1Nc1nc2ccc(C)cc2n2cnnc12 |  | inconclusive: 12.6 µM [activator, partial curve]
20 | CCCOc1ccccc1C1CC(=O)Nc2cc3c(cc21)OCCO3 (stereo not given) |  | inconclusive: 17.8 µM [activator, partial curve]
21 | O=[N+]([O-])c1ccccc1N/N=C\c1ccccc1F | inactive: -4.22% | 
22 | O=c1[nH]c(=S)[nH]c(-c2ccccc2)c1Cc1c(O)ccc2ccccc12 |  | inconclusive: 20.6 µM [activator, partial curve]
23 | O=C(Cn1nc(Cl)nc1Cl)c1ccccc1 | inactive: 0.152% | 

Rewritten with tabs: entries from further up.
Row	Compound	growth rescue (activation)	Potency
7	COc1ccccc1C1=NC(c2ccccc2)CN1c1ccccc1 (stereo not given)	inactive: -10.9%	
8	CC(C)(C)c1ccc(C(=O)c2cn[nH]c2-c2ccccc2O)cc1		inconclusive: 10 µM [activator, partial curve]
9	O=C(COc1c(Br)cc(Br)c2cccnc12)N1CCc2ccccc2C1		inconclusive: 20 µM [activator, partial curve]
10	COc1ccc(N=Nc2cnc(C)nc2-c2ccccc2)cc1	inactive: 9.79%	

Continuation:

Row | Compound | growth rescue (activation) | Potency
24 | Cc1ccc(C(=O)COC(=O)c2c(C)cc(=O)oc2C)cc1[N+](=O)[O-] |  | inconclusive: 31.6 µM [activator, single point]
25 | CCOC(=O)c1nnn2c1nc(N1CCCCC1)c1ccccc12 |  | inconclusive: 5.62 µM [activator, single point]
26 | CC(C(=O)Nc1ccccc1Oc1ccccc1)c1ccccc1 (stereo not given) |  | inconclusive: 22.4 µM [activator, single point]
27 | NC(=O)C1CCN(C(=O)c2ccc3c(=O)n(Cc4ccco4)c(SCC(=O)c4ccc(F)cc4)nc3c2)CC1 |  | inconclusive: 14.1 µM [activator, partial curve]
28 | Cn1nc(NC(=O)C(F)(F)F)c2ncc(-c3ccc(Cl)cc3)nc21 |  | inconclusive: 20 µM [activator, partial curve]
29 | CC(OC(=O)Cc1coc2ccc3ccccc3c12)C(=O)Nc1ncc(Cl)cc1Cl (stereo not given) |  | inconclusive: 31.6 µM [activator, single point]
30 | COc1ccc(-c2cc(-c3ccc(OC)c(OC)c3)n[nH]2)c(O)c1 | inactive: -5.46% | 
31 | Clc1ccccc1CN(Cc1ccco1)Cc1nnnn1C1CCCC1 |  | inconclusive: 2.24 µM [activator, full curve, poor fit]
32 | CC(=O)Nc1ccc(NC(=O)CSc2nnc(-c3cccs3)n2C)cc1 | inactive: 1.48% | 
33 | Cc1c(Cl)cccc1NC(=O)Cc1ccc([N+](=O)[O-])cc1 |  | inconclusive: 2.51 µM [activator, full curve, poor fit]
34 | O=C(NCC1CCCO1)C(c1cccs1)N(Cc1cccs1)C(=O)c1ccc(-c2ccccc2)[nH]1 (stereo not given) |  | active: 15.8 µM
35 | O=c1c2c3c(sc2nc(NCCO)n1CCc1ccccc1)CCCCC3 |  | active: 20 µM
36 | COC(=O)/C(C#N)=C/c1c(N2CCN(c3ccccc3)CC2)nc2c(C)cccn2c1=O |  | inconclusive: 12.6 µM [activator, partial curve]
37 | C[C@]12CC[C@@H]3c4ccc(O)cc4CC[C@H]3[C@@H]1CC[C@@H]2O |  | active: 23.1 µM
38 | O=C(OCc1csc(Nc2ccccc2)n1)c1ccc(Cl)cc1 |  | inconclusive: 25.1 µM [activator, single point]
39 | O=S(=O)(Nc1cccc(CCc2ccccn2)c1)c1ccc(Cl)cc1 |  | inconclusive: 12.6 µM [activator, partial curve]
40 | CCCCn1nc(C(=O)N2CCc3ccccc32)c2ccccc2c1=O |  | inconclusive: 25.1 µM [activator, single point]
41 | CCOc1ccc(NS(=O)(=O)c2ccc3c(c2)N(C(C)=O)CCO3)cc1 |  | inconclusive: 3.98 µM [activator, single point]
42 | CCN(CC)c1ccc(S(=O)(=O)N2CCOCC2)cc1NC(=O)COC(=O)/C=C/c1ccc(C)o1 |  | inconclusive: 12.6 µM [activator, single point]
43 | COc1ccc(NCc2nc3ccccc3n2CCOc2ccc(C)cc2)cc1 |  | inconclusive: 31.6 µM [activator, single point]
44 | CCCCCC(=O)Nc1cccc(C2=NOC3(C2)C[C@@H](C(N)=O)N(C(=O)c2cc([N+](=O)[O-])cc([N+](=O)[O-])c2C)C3)c1 (stereo not given in full) | inactive: -6.69% | 
45 | Cc1cc(/C=N/n2c(COc3ccccc3C)nc3ccccc3c2=O)c(O)c([N+](=O)[O-])c1 |  | inconclusive: 0.562 µM [activator, partial curve, poor fit]
